Measurements as given in PMC4912613, “A broad analysis of resistance development in the malaria parasite” (Nature Communications, 2016).

How the values were obtained:
Type in all cases: cell-based, Plasmodium falciparum
[1] = test system: ATQ-R4 (cytb M133I and L144S, parent 3D7); experiment: Cross-resistance EC50 assay, ATQ-R4; settings: SYBR green 72 hour assay, asynchronized parasites, 96-well or 1536-well format
Description: (§1) To evaluate potential overlapping activity against known antimalarial drug targets, we performed dose-response studies with each compound against our assembled set of drug-resistant lines and their corresponding parents, in an asexual blood stage proliferation assay (Table 1). Comparisons were made to the drug-sensitive strain 3D7 when a parent was unavailable (TM90C2A, W2 and Dd2). As laboratories conducted EC50 assays with different strains and protocols, all comparisons were made between assays from the same laboratory and under the same assay conditions. Compounds displaying >5-fold EC50 shifts relative to the parent or sensitive strain were flagged as having potentially non-novel targets. Average fold shifts per strain ranged from 0.82 to 2.34, with a median of 1.23 indicating there was not common resistance to any one resistant clone. No resistance patterns were observed when classifying the compounds based on chemical structure, but this was not surprising given the diversity of compounds chosen. On the other hand, given that these confirmed compounds were derived from larger unconfirmed hit lists to which some filtration criteria may have been applied (for example, elimination of obvious dihydrofolate reductase inhibitors[32]), some[10][11][12][13] pre-existing bias may exist in the set. […]
(§2) Alternatively, a SYBR Green-based proliferation approach was used for the 72-h assay, as previously described. Briefly, a culture of either synchronized or asynchronous parasitized RBCs (0.3% parasitemia and 4% haematocrit) in screening medium (identical to supplemented medium above except no serum was added) was exposed to serial drug dilutions. Plates were incubated at 37 °C and gassed with 93% N2, 4% CO2 and 3% O2 for 72 h. Following incubation, 10 × SYBR Green I (Invitrogen; supplied in 10,000 × concentration) in lysis buffer ([…], 5 mM EDTA, 0.16% Saponin wt per vol and 1.6% Triton X vol per vol) was added to the wells and the plates were incubated overnight at room temperature before plate reading. EC50 assays were repeated three times, taking the average EC50 value from each assay set, and removing any outliers using a single iteration of Grubbs' test, eliminating values with z-scores above the critical z-value (α=0.05). The raw EC50 values for synchronized parasites assayed in a 384-well format are listed in Supplementary Data 4. The raw EC50 values for asynchronous parasites assayed in a 96 or 1536-well format are listed in Supplementary Data 5.
(§3) EC50 values for each strain were compared with those of the corresponding parent strain to determine fold-shift changes and identify resistance. To minimize the cause variance between assays, all comparisons were conducted between strains assayed under identical conditions. A one-way ANOVA followed by a Dunnet's post-test was conducted in GraphPad Prism to identify significant changes between the parent and resistant strain.

[2] = test system: NITD609-R2 (PfATP4 T418N and P990R, parent Dd2); experiment: Cross-resistance EC50 assay, NITD609-R2; settings: SYBR green 72 hour assay, asynchronized parasites, 96-well or 1536-well format
Description: as §1, §2, §3

[3] = test system: PfATP4-Mut2 (PfATP4 P412L, parent W2); experiment: Cross-resistance EC50 assay, PfATP4-Mut2; settings: hypoxanthine 48-hour assay; synchronized parasites; 96-well format; strain PfATP4 Mut2
Description: To evaluate potential overlapping activity against known antimalarial drug targets, we performed dose-response studies with each compound against our assembled set of drug-resistant lines and their corresponding parents, in an asexual blood stage proliferation assay (Table 1). Comparisons were made to the drug-sensitive strain 3D7 when a parent was unavailable (TM90C2A, W2 and Dd2). As laboratories conducted EC50 assays with different strains and protocols, all comparisons were made between assays from the same laboratory and under the same assay conditions. Compounds displaying >5-fold EC50 shifts relative to the parent or sensitive strain were flagged as having potentially non-novel targets. Average fold shifts per strain ranged from 0.82 to 2.34, with a median of 1.23 indicating there was not common resistance to any one resistant clone. No resistance patterns were observed when classifying the compounds based on chemical structure, but this was not surprising given the diversity of compounds chosen. On the other hand, given that these confirmed compounds were derived from larger unconfirmed hit lists to which some filtration criteria may have been applied (for example, elimination of obvious dihydrofolate reductase inhibitors[32]), some[10][11][12][13] pre-existing bias may exist in the set.
The 48-h assay was carried out in a 96-well format following standard methods using the ^3H-hypoxanthine incorporation assay. The raw EC50 values corresponding to this assay can be found in Supplementary Data 3. Briefly, this assay relies on the parasite incorporation of labelled hypoxanthine that is proportional to P. falciparum growth. A culture of parasitized RBCs (0.5% parasitemia with a percentage of ring stage higher than 70% of total parasitemia, 2.0% haematocrit) in RPMI-1640, […] and 5 μM hypoxanthine was exposed to drug serial dilutions. Plates were incubated for 24 h at 37 °C, 5% CO2, 5% O2 and 90% N2. After 24 h of incubation, ^3H-hypoxanthine was added and plates were incubated for an additional 24-h period. After that, parasites were harvested on a glass fibre filter using a TOMTEC Cell Harvester 96. Filters were dried and melt-on scintillator sheets were used to determine the incorporation of ^3H-hypoxanthine. Radioactivity was measured using a microbeta counter. Data were normalized using the incorporation of the positive (parasitized RBCs without drug) and negative (same culture with artesunate at 2 μM) controls. All assays were conducted in triplicate using three independently grown cultures, and EC50 values were determined using the XLfit add-in module for Excel (version 2.3.1) from Grafit (version 5.3.1.3), where parameter h is the assay hill slope, x is the compound concentration and y is the inhibition of growth effect. The XLfit equation is: […]
as §2, with “5. […]” for “5.”

[4] = test system: ProRS (prolyl t-RNA synthetase L482H, parent Dd2); experiment: Cross-resistance EC50 assay, ProRS; settings: SYBR green 72 hour assay, synchronized parasites, 384-well format
Description: as §1, §2, §3

| Structure (SMILES) | ATQ-R4 (3D7 Parent) Average Hill Slope [1] | NITD609-R2 (Dd2 Parent) Average Hill Slope [2] | PfATP4 Mut2 (W2F6 Parent) Average Hill Slope [3] | ProRS (Dd2 Parent) Average Hill Slope ([4]; strain ProRS (Dd2 parent)) | ProRS (Dd2 Parent) Average Hill Slope ([4]; ProRS strain) |
| --- | --- | --- | --- | --- | --- |
| O=C(NCC(CCCN1CCC(c2c[nH]c3ccccc23)CC1)c1ccccc1)Nc1ccc(Cl)c(Cl)c1 (stereo not drawn) [MMV029272] | 1.74 | 1.21 | 0.62 | 1.67 |  |
| COC(=O)c1ccc(C2C3=C(O)CC(c4ccc(F)cc4)CC3=Nc3ccccc3N2C(=O)c2ccccc2)cc1 (stereo not drawn) [MMV011438] | 1.35 | 0.99 | 2.72 | 2.61 |  |
| COc1ccc(-c2nc(NC(=O)Cc3ccc4c(c3)OCCO4)sc2C)cc1 [MMV019719] | 1.91 | 1.71 | 1.24 | 2.81 |  |
| OC(CNC1CCCCC1)Cn1c2ccccc2c2ccccc21 (stereo not drawn) [MMV009063] | 1.74 | 1.23 | 0.81 | 1.50 |  |
| COc1ccc(C(=O)C2CC2c2ccc(Cl)cc2)cc1 (stereo not drawn) [MMV665924] | 1.12 | 0.98 | 0.77 | 1.76 |  |
| Nc1ncc(-c2cn[nH]c2)cc1-c1nc2ccc(F)cc2[nH]1 [MMV023367] | 1.92 | 2.18 | 1.22 | 5.63 |  |
| Cc1c(C)n(Cc2ccc(F)cc2)c2ccc(C(=O)NCc3ccco3)cc12 [MMV008149] | 1.67 | 0.93 | 2.71 | 0.92 |  |
| CC(C)c1cccc(C(NC(=O)C2Cc3ccccc3CN2C(=O)c2cccc(N3CCOCC3)c2)C2CCCC2)c1 (stereo not drawn) [MMV028038] | 1.29 | 1.52 | 1.11 | 3.91 |  |
| O=C(Nc1ccsc1C(=O)NC1CCCCC1)c1ccc(F)cc1 [MMV665939] | 3.41 | 1.53 | 1.24 | 3.63 |  |
| Cc1ccc(Oc2ncccc2C(=O)Cc2cccc3cccnc23)c(C)c1 [MMV020746] | 1.87 | 1.20 | 1.16 | 5.00 |  |
| CN(C)CCCNCc1ccc(-c2ccc(Cl)c(Cl)c2)o1 [MMV673964] | 2.39 | 1.68 | 3.08 |  | 4.54 |
| COc1cc(-c2nc(-c3ccccc3)c(-c3ccccc3)[nH]2)cc(OC)c1O [MMV020750] | 6.91 | 3.04 | 0.93 | 7.61 |  |
| CC(NCc1ccccc1)c1cc(Cl)ccc1O (stereo not drawn) [MMV665789] | 1.36 | 0.86 | 1.32 | 1.37 |  |
| CCN(CC)S(=O)(=O)c1ccc(-c2csc(Nc3ccc(C)c(C)c3)n2)cc1 [MMV009108] | 2.39 | 1.36 | 0.45 | 2.35 |  |
| CN(C)Cc1ccc(-c2cc3c(-c4ccc(CN(C)C)cc4)ccnc3[nH]2)cc1.O=C(O)C(F)(F)F [MMV022224] | 2.77 | 1.72 | 1.59 | 2.86 |  |
